Source: PubChem BioAssay AID493014 (National Center for Advancing Translational Sciences (NCATS), 2011)
Some of the results follow. Further columns of the screen follow, without active or inactive calls. Most of these compounds were active or inconclusive in the main read-out, so they are no random draw. The note in brackets gives the kind of curve behind each potency; many fits are weak.

Test: qHTS Assay to Find Inhibitors of Chronic Active B-Cell Receptor Signaling
Conditions: ABC-DLBCL IkBa-CBG/CBR reporter, luminescence ratio (green luciferase fused to IkBa over red control in TMD8 lymphoma cells), 4 h
Method in brief: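 Cell line TMD8 (human ABC DLBCL), stably expressing tet-inducible CBG68-IkBa fusion and CBR; IMDM/0.5% FBS; cpd up to 46 uM; dox induction, 4 h, 37C/5% CO2; dual luminescence; green/red ratio; MG132 control.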

[1] = measured here: CBR red luminescence, cell number
[2] = measured here: IkBa-CBG green luminescence

| Compound | AC50 [1] | AC50 [2] |
| --- | --- | --- |
| COc1cc(C(=O)NNC(=O)c2nn(C)c(=O)c3ccccc23)cc(OC)c1OC | 25.9 µM [rising, single point] |  |
| COc1cc(NS(=O)(=O)c2ccc(N/C=C\C(=O)c3ccc(F)cc3)cc2)nc(OC)n1 | 20.6 µM [falling, single point] |  |
| CCc1ccc2[nH]c(=O)c(CN(Cc3ccccc3)C(=O)Nc3ccccc3OC)cc2c1 | 16.4 µM [falling, partial curve, poor fit] |  |
| COc1ccc(/C=N/NC(=O)c2cccc(NC(=O)c3ccccc3Cl)c2)cc1 | 1.12 µM [falling, full curve] | 17.8 µM [falling, single point] |
| COc1ccc(C(=O)Cc2ccc3c(c2)OCO3)c(O)c1 | 6.51 µM [rising, partial curve, poor fit] |  |
| CCCC/C(=N\NC(=O)c1ccc(Br)o1)c1ccccc1 | 20.6 µM [falling, single point] |  |
| CCc1cc(C(c2ccccc2OC)N2CCOCC2)c(NC(=O)c2ccccc2)s1 (stereo not given) | 35.5 µM [falling, single point] |  |
| O=C(O)COc1ccc(-c2nc(-c3ccccc3)c(-c3ccccc3)[nH]2)cc1 | 6.31 µM [falling, partial curve] |  |
| CC(=O)N1CCN(c2ccccc2NC(=O)c2cc3ccccc3o2)CC1 | 11.2 µM [falling, partial curve] |  |
| CC1(C)Cc2c(C#N)c(OCC(=O)c3ccc(Cl)cc3)nc(-c3ccco3)c2CO1 | 6.51 µM [falling, single point] |  |
| Cc1cc(Cl)ccc1NC(=O)NC1CCN(S(=O)(=O)c2ccc(F)cc2)CC1 | 20.6 µM [falling, single point] |  |
| CC(=O)C1=C(c2ccccc2)NC(=O)NC1c1ccc(O)c(O)c1 (stereo not given) | 35.5 µM [falling, single point] |  |
| CSC1=N/C(=C\c2ccc(Br)o2)C(=O)S1 | 12.6 µM [rising, partial curve, poor fit] |  |
| Cc1ccc2c(c1)CCCN2CC(=O)Nc1cccc(S(=O)(=O)N2CCCC2)c1 | 0.58 µM [rising, full curve, poor fit] |  |
| CC(NC(=O)CCN1C(=O)c2ccccc2C1=O)c1ccc2c(c1)CCCC2 (stereo not given) | 2.06 µM [rising, partial curve] |  |
| O=C1CC(N2CCN(c3ccccc3O)CC2)C(=O)N1Cc1ccccc1 (stereo not given) | 22.4 µM [falling, single point] |  |
| CC(=O)c1cccc(NC(=S)NC(=O)c2ccccc2Cl)c1 | 1.46 µM [falling, partial curve] |  |
| Cn1cc(CNC(=O)C2CCC(=O)N(Cc3cccc(C(F)(F)F)c3)C2)cn1 (stereo not given) | 3.16 µM [falling, partial curve, poor fit] |  |
| Clc1ccc(OCCCCCN2CCCC2)c(Br)c1 | 14.6 µM [falling, partial curve, poor fit] |  |
| Nc1c(C(=O)Nc2ccccc2F)sc2nc(-c3cccnc3)ccc12 | 1.41 µM [falling, partial curve, poor fit] |  |
| COc1ccc(NC(=O)/C=C/c2ccc(Br)o2)cn1 | 10 µM [falling, partial curve, poor fit] |  |

| Compound | AC50 [1] | AC50 [2] |
| --- | --- | --- |
| CCCC(=O)N1CCN(c2ccc(NC(=O)c3cc4ccccc4o3)cc2Cl)CC1 | 4.11 µM [falling, full curve] | 16.4 µM [rising, partial curve, poor fit] |
| CC(=O)Nc1ccc(NC(=O)C(C)OC(=O)c2cc(S(=O)(=O)N3CCOCC3)ccc2Cl)cc1 (stereo not given) | 6.51 µM [rising, partial curve, poor fit] |  |
| c1ccc2c(c1)CCN(c1nc3cc4c(cc3s1)OCCO4)C2 | 10 µM [falling, partial curve, poor fit] |  |
| COc1ccc(Cn2nnnc2C(c2ccccc2Cl)N2CCC(C(N)=O)CC2)cc1 (stereo not given) | 5.62 µM [rising, single point] |  |
| COc1ccc(Cl)cc1NC(=O)c1c(NCc2cccnc2)sc2c1CCC(C)C2 (stereo not given) | 10 µM [falling, partial curve] |  |
| O=C(NCc1ccc(F)cc1)c1cc2c(s1)CS(=O)(=O)C2 | 17.8 µM [falling, partial curve, poor fit] |  |
| COC(=O)C1=C(C)N(CCc2ccc(OC)c(OC)c2)C(=O)C1 | 5.17 µM [falling, partial curve, poor fit] |  |
| CN(C)C(CNC(=O)CCc1nc2cc(Cl)ccc2n(Cc2ccccc2)c1=O)c1ccccc1 (stereo not given) | 29.1 µM [falling, single point] |  |
| CN(C)c1ccc(/C=N\NC(=O)CC#N)cc1 | 8.91 µM [falling, partial curve, poor fit] |  |
| Cc1cc(CNC(=O)COc2ccccc2)c2ccccc2n1 | 3.16 µM [rising, partial curve] |  |
| Nc1c(NCCC2=CCCCC2)c(=O)[nH]c(=O)n1Cc1ccccc1 | 11.2 µM [falling, partial curve, poor fit] |  |
| CN(C)S(=O)(=O)c1ccc(C(=O)OCC2CCCO2)cc1 (stereo not given) | 35.5 µM [rising, single point] |  |
| COC(=O)n1ccc(C(=O)Nc2ccccc2F)n1 | 35.5 µM [falling, single point] |  |
| Cn1nc(C(F)(F)F)c(-c2cccc(C(F)(F)F)c2)c1NC(=O)c1ccco1 | 0.112 µM [falling, full curve, poor fit] |  |
| CC(=O)Nc1nc(-c2ccc([N+](=O)[O-])cc2)cs1 | 3.55 µM [rising, full curve] |  |
| O=C(O)CCCCCN1C(=O)C(O)=C(C(=O)/C=C/c2ccccc2)C1c1ccccc1[N+](=O)[O-] (stereo not given) | 15.8 µM [falling, partial curve, poor fit] |  |
| O=c1oc(-c2ccccc2Cl)nc2ccsc12 | 29.1 µM [rising, single point] | 29.1 µM [falling, single point] |
| COc1ccccc1/C=N/OCc1ccc(C#N)cc1 | 4.47 µM [rising, partial curve, poor fit] |  |
| COc1cc2nc(SCc3ccc(Cl)cc3Cl)n(Cc3cccs3)c(=N)c2cc1OC |  | 12.6 µM [rising, partial curve, poor fit] |
| CNC(=O)c1ccc(-c2cc(C(F)(F)F)nn2C)s1 | 6.31 µM [rising, partial curve] |  |
| COc1cccc(NC(=O)c2ccc(-n3cccn3)nc2)c1 | 3.16 µM [falling, partial curve, poor fit] |  |

Single values from the entries so far:
AC50 [1] with `O=C(NCc1ccc(F)cc1)c1cc2c(s1)CS(=O)(=O)C2` is entered as 17.8 µM [falling, partial curve, poor fit]
AC50 [1] with `CN(C)S(=O)(=O)c1ccc(C(=O)OCC2CCCO2)cc1` (stereo not given) is entered as 35.5 µM [rising, single point]
AC50 [1] with `CN(C)C(CNC(=O)CCc1nc2cc(Cl)ccc2n(Cc2ccccc2)c1=O)c1ccccc1` (stereo not given) is entered as 29.1 µM [falling, single point]
AC50 [1] with `CC(=O)Nc1ccc(NC(=O)C(C)OC(=O)c2cc(S(=O)(=O)N3CCOCC3)ccc2Cl)cc1` (stereo not given) is entered as 6.51 µM [rising, partial curve, poor fit]

Remaining list, next part:

| Compound | AC50 [1] | AC50 [2] |
| --- | --- | --- |
| C/C(N)=C(/C#N)C(=O)COC(=O)c1cccc(C)c1O | 20 µM [rising, partial curve, poor fit] |  |
| C(=C\c1ccco1)/c1nc2ccccc2[nH]1 | 7.08 µM [falling, partial curve] |  |
| Cc1ccc(-c2ccc(/C=C3\C(=O)ON=C3c3ccccc3)o2)c([N+](=O)[O-])c1 | 11.2 µM [falling, partial curve, poor fit] |  |
| COC(=O)C(C)N(C(=O)c1ccc(C(=O)c2ccccc2)cc1)c1c(C)cccc1C (stereo not given) | 23.1 µM [falling, single point] |  |
| Cc1cc(C)c(NC(=O)CNC(=O)c2cc([N+](=O)[O-])ccc2N2CCOCC2)c(C)c1 | 0.092 µM [rising, full curve, poor fit] |  |
| S=c1[nH]nc(NCCCN2CCOCC2)s1 | 17.8 µM [rising, partial curve, poor fit] |  |
| COc1cccc(N=Nc2ccc(O)c3ncccc23)c1 | 10 µM [falling, partial curve, poor fit] |  |
| COc1ccccc1NC(=O)COC(=O)c1[nH]c(=O)[nH]c(=O)c1N | 32.6 µM [falling, single point] |  |
| CSc1cccc(NC(=O)C2(S(=O)(=O)c3ccc(C)cc3)CC2)c1 | 35.5 µM [rising, single point] |  |
| CCOc1ccc(Br)cc1C(=O)Nc1ccc(C(=O)NCC(C)C)cc1 | 20.6 µM [rising, single point] |  |
| C/C(=N\N=C(/N)SC1CC(=O)N(c2ccc(Br)cc2)C1=O)c1cccs1 (stereo not given) | 39.8 µM [falling, partial curve, poor fit] |  |
| CN(C(=O)COC(=O)c1cc(S(=O)(=O)N2CCCCC2)ccc1N1CCOCC1)C1CCS(=O)(=O)C1 (stereo not given) | 31.6 µM [rising, single point] |  |
| CCOC(=O)Nc1nc(-c2ccccc2)c(C(=O)c2ccccc2)s1 | 14.6 µM [rising, partial curve, poor fit] |  |
| CCCCCCCCCCOC(=O)Cn1c(COc2ccc(OC)cc2)[n+](C)c2ccccc21 | 11.2 µM [falling, single point] |  |
| COc1ccc(C(C)=O)cc1COC(=O)CSC(C)C(=O)Nc1cc(C)on1 (stereo not given) | 29.1 µM [rising, single point] |  |
| Cc1nc(C)c(-c2csc(Nc3ccccn3)n2)s1 | 31.6 µM [falling, single point] |  |
| CCOc1ccc(/C=N/NC(=O)c2ccccc2C)cc1CN1CC2CC(C1)c1cccc(=O)n1C2 (stereo not given) | 29.1 µM [falling, single point] |  |
| CCOc1ncccc1C(=O)N1CCN(c2cc(Cl)ccc2C)CC1 | 11.2 µM [rising, partial curve, poor fit] | 12.6 µM [falling, partial curve] |
| CCc1nnc(NC(=O)COc2ccc(N(C)S(=O)(=O)c3ccc(C)cc3)cc2)s1 | 4.47 µM [rising, single point] |  |
